# Source: PubChem BioAssay AID1347423 (Functional Genomics Laboratory (NCATS/FGL), 2020)
# Among all 52,000 sequences or so, about 210 (0.4%) were called active.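 The calls were made as follows: active = gene whose silencing raises cell survival under the drug, median off-target-corrected z-score across its silencing RNAs 2 or more; inactive = the rest.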 The list shows a part of the results.
# Test: Resistance to Poly (ADP-Ribose) Polymerase inhibitor: Gene Identification via Genome-wide siRNA Screen
# Settings: mouse BRCA2 R2336H ES cells, olaparib, CellTiter-Glo viability; active compounds read high
# Outline: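 Genome-wide siRNA screen (3 siRNAs/gene, 20 nM) in mouse ES cells carrying hypomorphic BRCA2 R2336H; olaparib 500 nM added 48 h post-transfection, CellTiter-Glo viability 72 h later. Normalized to plate-median negative control; MAD z-scores, gene median, seed-adjusted.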
row,Sequence,z-score
1,GGUCAAAUCAUUAAGGACATT against Pdzk1,inactive: -1.68
2,GGUCUACCUAAAACUGGAGTT against Cbln4,inactive: 0.0159
3,CCAAAUUAGCAACAUGGAATT against Depdc6,inactive: 1.08
4,CCAAGUCAGUGCUGUAAAGTT against F830104G03Rik,inactive: -0.645
5,CCAAUUCCAACCAGGAUUUTT against Slc26a8,inactive: 1.38
6,CCUUUAAUAAAGGUCUAGGTT against D15Wsu75e,inactive: 0.991
7,GGAGUUGGCAACAAGUUCUTT against 1700017G21Rik,inactive: 0.643
8,CCUUCACUGAGUUCUAUACTT against Pes1,inactive: -2.9
9,GGAAAGAAAUUGUAAAUGGTT against C130076O07Rik,inactive: -0.955
10,CGAGGUGCUGAAAUCUUGGTT against Ddah1,inactive: 0.569
11,GGCCUGAGUAUAAAGUUAGTT against Wbp2,inactive: -0.0416
12,GGGAUGAACUAUUGGCAGGTT against Lyzl1,inactive: 0.471
13,CCACCCUUCUUCUAUCGAATT against Ybx2,inactive: 0.464
14,CAGUGCUCAUCAAUAUUGATT against Olfr1163,inactive: 0.395
15,CGAGCUUUCUUCGUACACCTT against Dvl2,inactive: 0.518
16,GGACAAAAUAGAGUGGAUCTT against Ropn1l,inactive: 0.584
17,GGACAUUGUCAAUAUGCUCTT against Pygm,inactive: 0.197
18,GGUAAUCAAAGAAGUCAAGTT against Dnaja2,inactive: 0.442
19,GCGGGUUAAUUAUCAACUUTT against Agpat3,inactive: 0.109
20,GGUCAUGAGUCCACUGUUUTT against AW210570,inactive: 0.134
21,GCUGUUGAUUGGUCAACUATT against Lmnb1,inactive: 0.0579
22,GCCUUGAGACAAUGAGACATT against Ambn,inactive: 0.871
23,CCGUCAGGUCUGCAUUCAGTT against Olfr105,inactive: -0.235
24,GCUCAGAGACAAGCAACUGTT against Kcnk7,inactive: -1.37
25,GGCUGAUGUGUUGAAGAUUTT against Cetn3,inactive: -1.13
26,GGGCUAAUUUAAACACCUATT against Rdhs,inactive: 0.328

row,Sequence,z-score
1,CCUUGUUGAGAUCAAAUUGTT against D130059P03Rik,inactive: -0.551
2,GGACCAGAGGAGAUUUCAATT against Ern2,inactive: -2.2
3,GGUAGUGGACCUGACCUAUTT against 1700064K09Rik,inactive: 0.138
4,UAGGACAGGGAAAAAACUATT against Olfr1065,inactive: 0.842
5,GGCCUACAUCAUUCACUCCTT against Olfr65,inactive: 1.08
6,GGUGCUGGAGUUCAUGUACTT against Zbtb17,inactive: 0.689
7,GGAAUUGUAUUACUUUGAGTT against Tm9sf1,inactive: 1.03
8,GGUAUUCAGGAAGUCACCATT against Krt2-4,inactive: -0.841
9,GGUGUUUCCCAUUAGAACCTT against Loh12cr1,inactive: -0.475
10,CGUGUCUGAAGGACUACAATT against 1700052K11Rik,inactive: -0.809
11,GGCUGUCCAUUUUCUUAUCTT against Stc2,inactive: 1.8
12,GCUAAGUACAGCAAGGACUTT against Abt1,inactive: -0.0174
13,GGAAACAAGACAUAAUAGGTT against Fbxo42,inactive: 0.295
14,CCUUGCUUCGCCUACUUCUTT against Rab3ip,inactive: -0.308
15,GGGAAUAAAGUGUUUGUUUTT against E130113K22Rik,inactive: 1.7
16,GGAAGAAGAUGGUUCCGAATT against D1Ertd161e,inactive: -1.91
17,GGAAACAUGAUCAUUUUGATT against Olfr1179,inactive: 0.446
18,CGGGAAAGCCAAUACCAUGTT against MGC51670,inactive: 0.672
19,GGUCCUGAUGAAGAACGUGTT against Polr3e,inactive: -0.39
20,GGAUUCUGAACACUUUUUCTT against Pot1,inactive: 1.25
21,GGUAUCUGUGUGACUUCACTT against Pgpep1,inactive: 1.8
22,GCCUACAAUCUGAAUGAAGTT against Ctla2a,inactive: 0.00451
23,GGAGAAUUAGAAUAUGCUATT against 1110049F12Rik,inactive: 1.08
24,GGCCUUUAAAACUCCUGAATT against Lzic,inactive: -2.6
25,GGACAUGAAGAUAGCAAUUTT against Olfr424,inactive: -0.206
26,GGGACCUUGGAUUGUGUUGTT against Pla2g10,inactive: 0.00663

# Random excerpt: four entries already listed
row,Sequence,z-score
1,CCUUGUUGAGAUCAAAUUGTT against D130059P03Rik,inactive: -0.551
2,GGACCAGAGGAGAUUUCAATT against Ern2,inactive: -2.2
4,UAGGACAGGGAAAAAACUATT against Olfr1065,inactive: 0.842
13,GGAAACAAGACAUAAUAGGTT against Fbxo42,inactive: 0.295

# (cont.)

row,Sequence,z-score
1,GGUGUACCAGCAUAGCUGUTT against Hps5,inactive: 0.799
2,GGACUGGUCAGAGAUGGAUTT against A930025D01Rik,inactive: 1.16
3,GGUUAUUCUCAUUUCGGAUTT against Phospho1,inactive: 0.87
4,GGAUUUGAGAGAUUCAGUUTT against Siglec10,inactive: 0.639
5,GCACAACAAGACUUUUCUCTT against Epm2a,inactive: 0.573
6,GCUAAAUCCUUGACACCCATT against 4930430E16Rik,inactive: 2.92
7,GGUAGAAGAGAACUGGACATT against Oas1a,inactive: -2.37
8,GGACAAGUCCACAGUGUUUTT against Lss,inactive: -0.471
9,GCAGUCCUCCAUUAAGGUATT against Nr4a2,inactive: -0.444
10,GCAUGCGUGUCCAUCACAUTT against A730036I17Rik,inactive: -0.233
11,CCCUGUUAAGUCAACUAUGTT against Actl7a,inactive: 0.219
12,GGUUUGUCAACAAGUGUCATT against Dicer1,inactive: -0.082
13,GCCACGUUCAAACAGUACCTT against Slc1a7,inactive: 0.853
14,GCUCCAGUGAUUAUUUAUATT against C030018L16Rik,inactive: 0.243
15,GGCUCCAAUAAAGUGCCUUTT against Elf3,inactive: -0.0607
16,GGAACAGAGAUAUGAAACATT against Olfr738,inactive: -0.46
17,GUCCCUGAACCUGUGGUAUTT against Emp3,inactive: 0.684
18,CCAAGUUUAACAUCCAGGGTT against Pfkm,inactive: 1.16
19,CGGCUAUGUCCGUCAUUGGTT against 2310003F16Rik,inactive: -1.57
20,GGGAUUGGCUACGACUUCATT against Cbs,inactive: -2.04
21,CCUAACUGCUAAAUGGUGUTT against Irf1,inactive: 0.613
22,CCAGUUCGAUGUGGUAAUATT against Siat9,inactive: 1.16
23,CCUUAUCUUGGUAUACAAUTT against Eif3s10,inactive: -1.33
24,GGUUUAAUGCGACAUAUUGTT against 1700108E19Rik,inactive: 0.579
25,GGAAAUUUGUGAAAGGACATT against Gata4,inactive: -0.734
26,GGAAAAAAGAAAUCAGGAUTT against Luc7l,inactive: -0.126

row,Sequence,z-score
1,GCGCAGGAUACCCUAUCUATT against 4930542C12Rik,inactive: -1.05
2,GGACGUGAACCAGGAUGUUTT against Cblc,inactive: 1.44
3,GGGUGACUAUGAGAAGGAGTT against Lmx1b,inactive: -1.15
4,GGCUGGCAAUGUGAGCAGUTT against Gbx1,inactive: -0.22
5,GGAGAUAUUUUGCAUACAGTT against V1rc3,inactive: 0.46
6,GGAGGCAGCCAAAGAAAACTT against Bmp8a,inactive: -0.369
7,GGCAAAUAGUGACCACACGTT against Dmp1,inactive: -2.14
8,GGAACUCCUGACAAAGAUGTT against AW049829,inactive: -0.165
9,GGGACCAAGAAGGAUAACUTT against Flrt1,inactive: -0.951
10,GCUACGCAAUAAGACCACATT against Lamc3,inactive: -0.00194
11,GGACUUCCAUUCUUUUUCATT against Tieg3,inactive: -0.0534
12,GCUGGCCUUAUGUAAAUCUTT against Galc,inactive: -0.888
13,GCCACGACCUGGAACAACUTT against Taf6l,inactive: -0.423
14,GGAAGAUGAUGAUCAAACUTT against Zbed4,inactive: -0.726
15,GCAUCAACUGCUGGUCUAGTT against 1700013B16Rik,inactive: -2.47
16,CGCACAGUGGACAUUUGAGTT against 4833432M17Rik,inactive: -1.3
17,GGACCUAUAAGAACAGUGATT against Psmf1,inactive: -0.279
18,CCAUUGAAAAACUGGACAGTT against Olfr1463,inactive: -0.419
19,GGAGAUUGAGGAGGAGGCUTT against Incenp,inactive: -1.07
20,GGAAUCAUUUGAAUCAGGATT against 1200016B10Rik,inactive: -0.765
21,GGCCACAUGAGAUUGCUUUTT against Tnfrsf13c,inactive: -1.16
22,GGACAAGAAGUGUGUAUACTT against Mrc2,inactive: -1.37
23,GCGCGAGUUAUUGAUUCCGTT against Wee1,inactive: -0.687
24,GGAUUUUAACAAAUUCUGCTT against 2410141M05Rik,inactive: 1.26
25,CGAAAAAAAGUCCAUAAAGTT against Mki67ip,inactive: -0.091
26,GGUAUGACACAGUCAUACUTT against V1rc17,inactive: 0.784

# Part of the list above, as tab-separated lines.
row	Sequence	z-score
18	CCAUUGAAAAACUGGACAGTT against Olfr1463	inactive: -0.419
22	GGACAAGAAGUGUGUAUACTT against Mrc2	inactive: -1.37
